Test results as given in PubChem BioAssay AID504444 (National Center for Advancing Translational Sciences (NCATS), 2011).
The campaign covered roughly 360,000 compounds. About 7,500 (2.1%) were called active. Inconclusive means that the source gave no clear call. Such entries were picked first, then a sample of the others. Calls follow the shape of the dose curve; as a rule, active = well fitted inhibition curve with a large enough effect; inconclusive = small, poorly fitted or top-dose-only effect, or effect the other way; inactive = flat fitted curve, though single readings scatter. A potency beside an inconclusive call is a rough fit, not a confirmed value.

Assay: Nrf2 qHTS screen for inhibitors; also: nearly all actives have a fitted effect of over 60% in size
Details: A549 ARE-Fluc reporter, luciferase luminescence, 18-24 h; series mostly up to 46 µM
In short: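 A549 ARE_Fluc cells (5000/well, 5% FBS OPTI-MEM) pre-incubated 2 h, then treated with compounds 18-24 h at 37C/5% CO2 in concentration-response. CellTiter-Fluor viability read first; BugLite luciferase luminescence after 15 min at room temperature gives Nrf2 activity.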
Potency is read from the fitted curve at half-maximal effect.

| SMILES | Potency |
| --- | --- |
| Cc1ccc(S(=O)(=O)N2CCN(c3ccccc3)CC2)s1 | inconclusive: 1.46 µM [falling, partial curve, poor fit] |
| N/C(=N\OC(=O)c1ccc(Cl)cc1Cl)c1cccnc1 | inconclusive: 3.66 µM [activator, full curve] |
| CN(C=O)c1ccc(CSc2ccccc2)cc1 | inconclusive: 2.59 µM [activator, full curve] |
| CC1CCCCC1NC(=O)c1cccc(S(=O)(=O)N2CCN(Cc3ccccc3)CC2)c1 (stereo not given) | inconclusive: 20.6 µM [falling, partial curve, poor fit] |
| COc1ccc(C)cc1NC(=O)C(c1ccccc1)N1CCN(CC(=O)N2CCOCC2)CC1 (stereo not given) | inactive |
| CCn1c(CN2CCN(C(c3ccccc3)c3ccccc3)CC2)nc2c1c(=O)n(C)c(=O)n2C | inconclusive: 32.6 µM [falling, partial curve, poor fit] |
| Cc1nc(-c2ccccc2)[nH]c(=O)c1Oc1ccc(Cl)cc1Cl | active: 20.6 µM |
| COc1ccc(-c2ccc(SCC(=O)Nc3cc(C)on3)nn2)cc1OC | inconclusive: 6.51 µM [falling, single point] |
| O=C1NC[C@H](c2ccccc2)OC(=O)[C@@H](Cc2ccc(F)cc2)CC/C=C/C[C@@H]1CC(=O)N(CCO)Cc1ccccc1 | inconclusive: 20.6 µM [falling, single point] |
| O=C(CCCn1c(=O)[nH]c2ccccc2c1=O)NCCSCc1ccccc1 | inactive |
| CN(Cc1ccccc1)c1nc(N)c([N+](=O)[O-])c(NCc2ccccc2)n1 | inconclusive: 29.1 µM [falling, single point] |
| COc1ccc(CNC(=O)COc2cc3c(c4oc(=O)cc(C)c24)CCC(C)(C)O3)cc1OC | inconclusive: 20.6 µM [falling, single point] |
| CN1CCN(/N=C/c2ccc(Br)cc2)CC1 | inconclusive: 23.1 µM [activator, single point] |
| Cn1cc(Br)c(C(=O)Nc2sc3c(c2C#N)CCC3)n1 | inactive |
| CCN1CCN(c2nc(-c3ccccn3)nc3ccccc23)CC1 | inactive |
| Cc1ccccc1CSCCNC(=O)c1ccc(Cl)c(S(=O)(=O)N2CCOCC2)c1 | inconclusive: 0.103 µM [falling, full curve, poor fit] |
| O=C1OC(c2ccccc2)Sc2ccccc21 (stereo not given) | inactive |
| CCC(=O)NC(c1cccs1)c1cc(Cl)c2ccccc2c1O (stereo not given) | inactive |
| Cc1csc(NC(=O)c2ccc(Cl)cc2[N+](=O)[O-])n1 | inconclusive: 1.3 µM [activator, full curve, poor fit] |
| Cc1cc(C(=O)NCc2ccc(Cl)cc2)n(-c2ccccc2)n1 | inconclusive: 16.4 µM [falling, partial curve, poor fit] |
| C[C@H](NC(=O)COc1ccccc1)C(=O)OCC(=O)c1cc2ccccc2o1 | inconclusive: 29.1 µM [activator, single point] |
| CCCn1c(SCC(=O)Nc2cccc(C)n2)nnc1C(C)C | inconclusive: 0.146 µM [activator, full curve, poor fit] |

Two successive records from above, for reference:

| SMILES | Potency |
| --- | --- |
| Cc1ccc(S(=O)(=O)N2CCN(c3ccccc3)CC2)s1 | inconclusive: 1.46 µM [falling, partial curve, poor fit] |
| N/C(=N\OC(=O)c1ccc(Cl)cc1Cl)c1cccnc1 | inconclusive: 3.66 µM [activator, full curve] |

Continuation:

| SMILES | Potency |
| --- | --- |
| COc1ccc(-c2cc(C(=O)O)[nH]n2)cc1OC | inactive |
| CCN(N=O)c1ccc(C=C2C=Cc3ccccc32)cc1 | inconclusive: 1.64 µM [activator, partial curve] |
| CN(C)c1ccc(NC(=O)c2ccc(COc3cccc(Cl)c3)o2)cc1 | inconclusive: 29.1 µM [falling, single point] |
| Cc1nc(SCC(=O)N2CCCCC2)c2c(C)c(C)sc2n1 | inconclusive: 29.1 µM [falling, single point] |
| Cn1c(SCC(=O)Nc2cccc(F)c2)nc2c([nH]c3ccccc32)c1=O | inconclusive: 8.2 µM [falling, partial curve, poor fit] |
| CCOc1ccc(CN(C(=O)c2ccccn2)c2ccc(OC)c(Cl)c2)cc1 | inconclusive: 10.3 µM [activator, partial curve, poor fit] |
| O=C1CSC2(C(=O)N(Cc3ccccc3)c3ccccc32)N1c1cccc(F)c1 (stereo not given) | inconclusive: 29.1 µM [falling, single point] |
| C=CCOc1ccc(/C=N/NC(=O)C(=O)Nc2ccccn2)cc1OC | inconclusive: 2.06 µM [activator, partial curve, poor fit] |
| Cn1c(NC(=O)/C=C\c2ccccc2)cc(=O)n(C)c1=O | inconclusive: 8.2 µM [activator, partial curve] |
| NS(=O)(=O)c1ccc(NC(=O)c2cccc3cc4ccccc4nc23)cc1 | inconclusive: 6.51 µM [falling, partial curve] |
| Cc1cc2nnc(SCC(=O)Nc3cc(S(=O)(=O)N4CCOCC4)ccc3Cl)n2c2ccccc12 | inconclusive: 14.6 µM [falling, partial curve, poor fit] |
| COc1cccc(NC(=O)CN(C)C(=O)CC(NC(=O)c2ccccc2Cl)c2ccccc2)c1 (stereo not given) | inactive |
| CCC(Sc1nncn1C)C(=O)Nc1nnc(-c2ccccc2Cl)s1 (stereo not given) | inactive |
| CC(NC(=O)CNC(=S)N(Cc1cccs1)C1CCCC1)c1ccccc1 (stereo not given) | inconclusive: 29.1 µM [falling, single point] |
| O=C(Nc1ccc2c(c1)OCCO2)C1CCN(c2nnnn2-c2ccccc2)CC1 | inconclusive: 18.4 µM [falling, partial curve, poor fit] |
| Cn1ccc(C(=O)OCC(=O)c2ccccc2)n1 | inconclusive: 11.6 µM [activator, partial curve, poor fit] |
| CC1=C(C(=O)OCCc2ccccc2)C(c2ccsc2)NC(=O)N1C (stereo not given) | inconclusive: 18.4 µM [falling, single point] |
| COc1ccc(-c2cc(C(=O)N3CCOCC3)no2)cc1OC | inconclusive: 25.9 µM [activator, single point] |
| COC(=O)Nc1ccc(S(=O)(=O)N2CCC(Cc3ccccc3)CC2)cc1 | inconclusive: 14.6 µM [falling, partial curve, poor fit] |
| COc1ccc(Nc2nc(Nc3ccc(OC)cc3)nc(SC3=NCCS3)n2)cc1 | inconclusive: 29.1 µM [falling, single point] |
| CC(C(=O)Nc1cccc(S(=O)(=O)N2CCOCC2)c1)N1CCN(C/C=C/c2ccccc2)CC1 (stereo not given) | inconclusive: 8.2 µM [falling, partial curve, poor fit] |
| Cc1cc(C)nc(/N=C(\N)N(Cc2ccccc2)Cc2ccccc2)n1 | inconclusive: 29.1 µM [falling, single point] |

| SMILES | Potency |
| --- | --- |
| CC(C)CCNC(=O)CN(C(=O)CCC(=O)Nc1nccs1)c1ccc2c(c1)OCCO2 | inconclusive: 7.31 µM [activator, partial curve] |
| Cc1ccc(S(=O)(=O)N2CCN(Cc3cc(Br)ccc3O)CC2)cc1 | inconclusive: 32.6 µM [falling, single point] |
| CCN(CC)C(=O)Nc1ccc(Br)cc1 | inconclusive: 20.6 µM [activator, partial curve, poor fit] |
| COc1ccc(C2SCCN2S(=O)(=O)c2ccc(NC(C)=O)cc2)cc1OC (stereo not given) | inconclusive: 25.9 µM [falling, single point] |
| Cc1cccc(-c2noc(-c3ccc(NCc4ccco4)c([N+](=O)[O-])c3)n2)c1 | inconclusive: 29.1 µM [falling, single point] |
| COC(=O)c1cn(NC(=O)c2cc(OC)c(OC)c(OC)c2)c(=O)c2ccccc12 | inconclusive: 0.164 µM [falling, full curve, poor fit] |
| O=c1c2ccccc2nc(N2CCN(c3ccccc3)CC2)n1Cc1ccccc1 | inconclusive: 29.1 µM [falling, single point] |
| COCCOC(=O)C1=C(C)NC(=O)NC1c1ccc(-c2ccc(F)cc2)o1 (stereo not given) | inconclusive: 11.6 µM [falling, partial curve] |
| O=C(NCCN1CCCCC1)c1cccc2c1C(=O)c1ccc(N3CCCC3)cc1S2(=O)=O | inconclusive: 23.1 µM [activator, single point] |
| COc1cc(SC)ccc1C(=O)Nc1ccc2c(c1)OCCO2 | inconclusive: 2.31 µM [activator, partial curve] |
| CCN(CC)S(=O)(=O)c1ccc(NC2CCCc3ccccc32)nc1 (stereo not given) | active: 14.6 µM |
| COc1cccc(-n2nnnc2SCC(=O)Nc2cccc(NC(C)=O)c2)c1 | inconclusive: 29.1 µM [falling, single point] |
| c1ccc(-n2ncc3c(NCc4ccccn4)ncnc32)cc1 | inactive |
| O=C1c2cccc3c(N4CCOCC4)c([N+](=O)[O-])cc(c23)C(=O)N1c1cccc2ccccc12 | inconclusive: 10.3 µM [falling, partial curve] |
| COc1ccc(NC(C)C(=O)Nc2ccc(C#N)cc2)cc1Cl (stereo not given) | inconclusive: 23.1 µM [falling, partial curve, poor fit] |
| Nc1nn2c(-c3ccccc3)cc(=O)[nH]c2c1N=Nc1ccc(Br)cc1 | inconclusive: 29.1 µM [falling, single point] |
| O=C(CSc1nnc(-c2ccc(Cl)cc2)o1)N1CCOCC1 | inconclusive: 4.11 µM [activator, full curve] |
| COc1ccc(OC)c2sc(N(CCCN(C)C)C(=O)CCS(=O)(=O)c3ccccc3)nc12 | inactive |
| CC(C)(CNC(=O)/C=C/c1ccc(F)cc1)CNC(=O)/C=C/c1ccc(F)cc1 | inactive |
| NNC(=O)CN1C(c2ccc(Cl)cc2)=Nc2ccc(Br)cc2C1c1ccccc1 (stereo not given) | inactive |
| CC(C)c1ccc(NC(=O)Nc2cnccn2)cc1 | inactive |
